Experimental findings from paper PMC12046049 are described below.

This test concerns the target HSPB7ACD (α-crystallin domain, residues 78-162 of isoform 2) (human) (UniProt Q9UBY9). Description: native MS; ACD incubated with C-terminal peptide, peptide titration; 200 mM ammonium acetate pH 6.9; acetonitrile added to the source housing; fit with a Hill slope model for 1:1 binding; both purified.

Results are given in words; binding and its absence hold for the method and conditions named.

In the case of TFRTEIKI [HSPB7 C-terminal peptide (residues 168-175, TFRTEIKI)], the binding result is listed as “no binding”.
